PubChem BioAssay AID1259425, University of Nebraska Medical Center, 2018
Assay: 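Find knockdowns that reproduce the gene expression pattern seen when KSR1 is lost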 (primary screen). Cell system: HCT116 human colon cancer cells. Knock-down reagent: siRNA pool against human genes, 50 nM siRNA. Detection: 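After 50 nM siRNA pool, branched-DNA assay measures six marker transcripts per well, minus blank, normalised to the geometric mean of two housekeeping transcripts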. Scale: BNIP3L mRNA: higher = more BNIP3L transcript after knockdown; NDRG1 mRNA: higher = more NDRG1 transcript after knockdown; BNIP3 mRNA: higher = more BNIP3 transcript after knockdown.
Here is an unselected part of about 14,000 reagents. Not all columns of the deposit are shown. The record does not give: the time to read-out.

target | PubChem SID | BNIP3L mRNA, set 1 | NDRG1 mRNA, set 1 | BNIP3 mRNA, set 1
AQP5 | SID363992876 | 0.086 | 0.195 | 0.278
IL1B | SID363991895 | 0.149 | 0.153 | 0.236
CRABP2 | SID363993091 | 0.0459 | 0.0703 | 0.324
UBC | SID364001950 | 0.0837 | 0.243 | 0.169
GPR155 | SID364004725 | 0.158 | 0.419 | 0.381
HIC2 | SID363999299 | 0.151 | 0.202 | 0.211
KCNK16 | SID364003772 | 0.398 | 0.422 | 0.751
EEF1AKMT3 | SID363999491 | 0.161 | 1.2 | 0.638
TP63 | SID363994791 | 0.0558 | 0.0995 | 0.219
MPRIP | SID363999321 | 0.131 | 0.246 | 0.215
OMG | SID363993715 | 0.0661 | 0.21 | 0.246
SLC7A4 | SID363995177 | 0.229 | 0.142 | 0.367
CENPQ | SID364000808 | 0.212 | 0.158 | 0.21
RBM15B | SID363998409 | 0.107 | 0.238 | 0.378
TRPV6 | SID364001145 | 0.12 | 0.0796 | 0.271
G6PC3 | SID364004552 | 0.124 | 0.295 | 0.174
CSN1S1 | SID363993103 | 0.134 | 0.296 | 0.415
RUSC2 | SID364005208 | 0.386 | 0.672 | 0.718
TRIM52 | SID364004158 | 0.326 | 0.447 | 0.54
GABRB1 | SID363992102 | 0.0598 | 0.238 | 0.205
PHIP | SID364000657 | 0.137 | 0.203 | 0.28
DDX54 | SID364002726 | 0.163 | 0.142 | 0.3
FAM20B | SID363999154 | 0.126 | 0.248 | 0.267
SHC1 | SID363994178 | 0.248 | 0.0782 | 0.377
NFRKB | SID363996994 | 0.0844 | 0.0979 | 0.272
GCHFR | SID363996178 | 0.0718 | 0.239 | 0.232
RBBP5 | SID363995995 | 0.0651 | 0.101 | 0.326
ZDBF2 | SID364005458 | 0.111 | 0.115 | 0.284
APLNR | SID363996088 | 0.236 | 0.315 | 0.329
HES6 | SID364001144 | 0.33 | 0.915 | 0.468
MGMT | SID363993590 | 0.112 | 0.3 | 0.34
TMEM117 | SID364003851 | 0.309 | 0.25 | 0.611
FBXL3 | SID363998102 | 0.0869 | 0.1 | 0.211
ENOX2 | SID363997191 | 0.151 | 0.26 | 0.255
SPCS2 | SID363999082 | 0.147 | 0.203 | 0.293
EOMES | SID363996348 | 0.0657 | 0.385 | 0.176
CELA1 | SID363993183 | 0.234 | 0.246 | 0.304
IER2 | SID363995855 | 0.141 | 0.209 | 0.171
NDUFV1 | SID363997819 | 0.0932 | 0.25 | 0.258

In a second layout: results already given.
{"target": "FBXL3", "PubChem SID": "SID363998102", "BNIP3L mRNA, set 1": 0.0869, "NDRG1 mRNA, set 1": 0.1, "BNIP3 mRNA, set 1": 0.211}
{"target": "ENOX2", "PubChem SID": "SID363997191", "BNIP3L mRNA, set 1": 0.151, "NDRG1 mRNA, set 1": 0.26, "BNIP3 mRNA, set 1": 0.255}
{"target": "SPCS2", "PubChem SID": "SID363999082", "BNIP3L mRNA, set 1": 0.147, "NDRG1 mRNA, set 1": 0.203, "BNIP3 mRNA, set 1": 0.293}
{"target": "EOMES", "PubChem SID": "SID363996348", "BNIP3L mRNA, set 1": 0.0657, "NDRG1 mRNA, set 1": 0.385, "BNIP3 mRNA, set 1": 0.176}
{"target": "CELA1", "PubChem SID": "SID363993183", "BNIP3L mRNA, set 1": 0.234, "NDRG1 mRNA, set 1": 0.246, "BNIP3 mRNA, set 1": 0.304}
{"target": "IER2", "PubChem SID": "SID363995855", "BNIP3L mRNA, set 1": 0.141, "NDRG1 mRNA, set 1": 0.209, "BNIP3 mRNA, set 1": 0.171}

The list goes on.
target | PubChem SID | BNIP3L mRNA, set 1 | NDRG1 mRNA, set 1 | BNIP3 mRNA, set 1
SPAST | SID363999216 | 0.0795 | 0.268 | 0.392
LTK | SID363993528 | 0.157 | 0.174 | 0.254
PSMB3 | SID363993952 | 0.298 | 1.75 | 0.384
EHF | SID363998097 | 0.1 | 0.539 | 0.369
ZNF768 | SID364002964 | 0.136 | 0.327 | 0.466
LRP10 | SID363998571 | 0.111 | 0.201 | 0.279
HTR3A | SID363992156 | 0.122 | 0.262 | 0.269
SOX3 | SID363996528 | 0.216 | 0.584 | 0.423
GALK1 | SID363991490 | 0.204 | 0.686 | 0.543
GPKOW | SID363999656 | 0.108 | 0.21 | 0.241
EXO1 | SID363994761 | 0.0939 | 0.131 | 0.309
ATG13 | SID363999072 | 0.111 | 0.183 | 0.38
ANKRD55 | SID364002962 | 0.124 | 0.298 | 0.361
ADCYAP1R1 | SID363992412 | 0.098 | 0.121 | 0.243
NEK9 | SID364004325 | 0.113 | 0.0788 | 0.247
TSPAN32 | SID363996591 | 0.095 | 0.0836 | 0.268
TUBB2A | SID363992366 | 0.0523 | 0.212 | 0.255
PSEN1 | SID363991360 | 0.0777 | 0.0846 | 0.273
SLC35H1 | SID363999740 | 0.143 | 0.0799 | 0.296
DOCK6 | SID364001844 | 0.06 | 0.201 | 0.37
AMMECR1L | SID364003629 | 0.156 | 0.142 | 0.305
DRICH1 | SID364000114 | 0.147 | 0.123 | 0.527
PNPLA8 | SID364005380 | 0.112 | 0.103 | 0.22
OPN1LW | SID364001477 | 0.232 | 0.676 | 0.513
